According to the supplement of paper PMC4604168 (melanoma cell lines):
This is one part of the list. Many values rest on one well or one pass, so single values are uncertain.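 Imaging used 1,536-well plates; nuclei positive for cleaved PARP by antibody were divided by total DNA-stained nuclei to yield the apoptosis fraction. Doses for screening kept most cells viable, and cell lines differ markedly in resting and induced cleaved-PARP levels.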

Key:
Assay in all cases: cleaved PARP positive nuclei fraction relative to DMSO control; melanoma cells; higher = more apoptosis
Conditions in all cases: library dose: low library concentration; 72 h
501Mel = system: 501Mel
A101D = system: A101D
A2058 = system: A2058
A375 = system: A375
C32 = system: C32
CBRC008 = system: CBRC008 (line from a melanoma biopsy)
CBRC013 = system: CBRC013 (line from a melanoma biopsy)
CBRC014 = system: CBRC014 (line from a melanoma biopsy)
CBRC016 = system: CBRC016 (line from a melanoma biopsy)
CBRC017 = system: CBRC017 (line from a melanoma biopsy)

Compound | cleaved PARP positive nuclei fraction (501Mel) [%] | cleaved PARP positive nuclei fraction (A101D) [%] | cleaved PARP positive nuclei fraction (A2058) [%] | cleaved PARP positive nuclei fraction (A375) [%] | cleaved PARP positive nuclei fraction (C32) [%] | cleaved PARP positive nuclei fraction (CBRC008) [%] | cleaved PARP positive nuclei fraction (CBRC013) [%] | cleaved PARP positive nuclei fraction (CBRC014) [%] | cleaved PARP positive nuclei fraction (CBRC016) [%] | cleaved PARP positive nuclei fraction (CBRC017) [%]
CCN(CC)CCNC(=O)c1c(C)[nH]c(/C=C2\C(=O)Nc3ccc(F)cc32)c1C [sunitinib] + NC(=O)Nc1cc(-c2cccc(F)c2)sc1C(=O)N[C@H]1CCCNC1 [AZD7762] (first compound 0.4 µM, partner dose 0.02 µM) | 199 | 38.4 | 46.8 | 318 | 212 | 57.2 | 389 | 83.2 | 48.3 | 123
NC1(c2ccc(-c3nc4ccn5c(=O)[nH]nc5c4cc3-c3ccccc3)cc2)CCC1 + C=CCn1c(=O)c2cnc(Nc3ccc(N4CCN(C)CC4)cc3)nc2n1-c1cccc(C(C)(C)O)n1 [MK1775] (first compound 0.4 µM, partner dose 0.02 µM) | 61 | 56.5 | 163 | 61.4 | 49.5 | 55.9 | 102 | 64.3 | 107 | 104
C[C@@H](N)c1ccc(C(=O)Nc2ccnc3[nH]ccc23)cc1 + CN(NC(=O)CC(=O)NN(C)C(=S)c1ccccc1)C(=S)c1ccccc1 [STA4783] (first compound 0.4 µM, partner dose 0.006 µM) | 145 | 275 | 235 | 7150 | 265 | 3920 | 171 | 689 | 705 | 321
COc1ccc(C2=N[C@@H](c3ccc(Cl)cc3)[C@@H](c3ccc(Cl)cc3)N2C(=O)N2CCNC(=O)C2)c(OC(C)C)c1 [Nutlin-3] + Cc1ccc(NC(=O)c2cccc(N(C)C)c2)cc1NC(=O)c1ccc(O)cc1 [ZM336372] (first compound 0.1 µM, partner dose 2 µM) | 96 | 41.1 | 198 | 107 | 215 | 93.9 | 170 | 107 | 111 | 165
C[C@@H](N)c1ccc(C(=O)Nc2ccnc3[nH]ccc23)cc1 + CO[C@@H]1[C@H](N(C)C(=O)c2ccccc2)C[C@H]2O[C@]1(C)n1c3ccccc3c3c4c(c5c6ccccc6n2c5c31)C(=O)NC4 [Midostaurin] (first compound 0.4 µM, partner dose 0.08 µM) | 72.1 | 66.5 | 72.4 | 81.7 | 73.3 | 84.9 | 157 | 95.8 | 208 | 117
CN(c1ncccc1CNc1nc(Nc2ccc3c(c2)CC(=O)N3)ncc1C(F)(F)F)S(C)(=O)=O + CC1(C)NC(=O)N(c2ccc([N+](=O)[O-])c(C(F)(F)F)c2)C1=O [nilutamide] (first compound 0.08 µM, partner dose 1 µM) | 102 | 85.9 | 56.7 | 74.3 | 26.9 | 126 | 120 | 83.3 | 99 | 77.5
CS(=O)(=O)c1ccc(C(=O)Nc2ccc(Cl)c(-c3ccccn3)c2)c(Cl)c1 [vismodegib] + O=C(CCCCCCC(=O)Nc1ccccc1)NO [vorinostat] (first compound 1 µM, partner dose 0.08 µM) | 102 | 81 | 82.6 | 209 | 169 | 128 | 118 | 178 | 110 | 102
C[C@]1(O)C[C@@H](c2nc(-c3ccc4ccc(-c5ccccc5)nc4c3)c3c(N)nccn32)C1 + Cc1cc(N2CCOCC2)cc2[nH]c(-c3c(NC[C@@H](O)c4cccc(Cl)c4)cc[nH]c3=O)nc12 [BMS536924] (first compound 0.4 µM, partner dose 0.2 µM) | 235 | 171 | 70.7 | 192 | 137 | 267 | 139 | 100 | 109 | 93.2
NC(=O)c1ccc(N(C(N)=O)c2c(F)cccc2F)nc1-c1ccc(F)cc1F + NCC(=O)Nc1ccc(-n2nc(C(F)(F)F)cc2-c2ccc3c(ccc4ccccc43)c2)cc1 [OSU03012] (first compound 0.4 µM, partner dose 1 µM) | 383 | 94 | 56.8 | 1220 | 50.4 | 110 | 104 | 255 | 88 | 108
Cn1sc(=O)n(Cc2ccccc2)c1=O + C[C@@H]1CCN(C(=O)CC#N)C[C@@H]1N(C)c1ncnc2[nH]ccc12 [CP690550] (first compound 0.4 µM, partner dose 1 µM) | 33.5 | 86.3 | 49.1 | 56.5 | 231 | 93.1 | 121 | 84.7 | 65.9 | 87.5
CCCCCCCCc1ccc(CCC(N)(CO)CO)cc1 [fingolimod] + CN(C)S(=O)(=O)c1ccc2c(c1)/C(=C/c1cc3c([nH]1)CCCC3)C(=O)N2 [SU6656] (first compound 2 µM, partner dose 0.4 µM) | 137 | 174 | 95.1 | 216 | 62.3 | 56.4 | 111 | 903 | 35.4 | 1370
CC1(C)CCC(c2ccc(Cl)cc2)=C(CN2CCN(c3ccc(C(=O)NS(=O)(=O)c4ccc(N[C@H](CCN5CCOCC5)CSc5ccccc5)c(S(=O)(=O)C(F)(F)F)c4)cc3)CC2)C1 + Cc1cc(N2CCOCC2)cc2[nH]c(-c3c(NC[C@@H](O)c4cccc(Cl)c4)cc[nH]c3=O)nc12 [BMS536924] (first compound 0.4 µM, partner dose 0.2 µM) | 94.4 | 94.3 | 115 | 411 | 526 | 1090 | 133 | 845 | 599 | 242
NC1(c2ccc(-c3nc4ccn5c(=O)[nH]nc5c4cc3-c3ccccc3)cc2)CCC1 + Cc1ccc(NC(=O)c2cccc(N(C)C)c2)cc1NC(=O)c1ccc(O)cc1 [ZM336372] (first compound 0.4 µM, partner dose 2 µM) | 84.7 | 152 | 77.5 | 139 | 149 | 44.9 | 103 | 88.6 | 160 | 88.1
NC1(c2ccc(-c3nc4ccn5c(=O)[nH]nc5c4cc3-c3ccccc3)cc2)CCC1 + NC(=O)Nc1cc(-c2cccc(F)c2)sc1C(=O)N[C@H]1CCCNC1 [AZD7762] (first compound 0.4 µM, partner dose 0.02 µM) | 66 | 196 | 1090 | 115 | 61.4 | 89.5 | 86.9 | 75.1 | 85.9 | 91.2
CC(=O)O[C@@]12CO[C@@H]1C[C@H](O)[C@@]1(C)C(=O)[C@H](O)C3=C(C)[C@@H](OC(=O)[C@H](O)[C@@H](NC(=O)OC(C)(C)C)c4ccccc4)C[C@@](O)([C@@H](OC(=O)c4ccccc4)[C@H]21)C3(C)C [Docetaxel] + COc1cc(Nc2ncc(F)c(Nc3ccc4c(n3)NC(=O)C(C)(C)O4)n2)cc(OC)c1OC [Tamatinib] (first compound 0.0001 µM, partner dose 0.4 µM) | 395 | 124 | 14600 | 7040 | 303 | 1150 | 98.7 | 181 | 636 | 218
Cn1cnc2c(F)c(Nc3ccc(Br)cc3Cl)c(C(=O)NOCCO)cc21 [selumetinib] + CN(NC(=O)CC(=O)NN(C)C(=S)c1ccccc1)C(=S)c1ccccc1 [STA4783] (first compound 0.015 µM, partner dose 0.006 µM) | 1260 | 46.1 | 330 | 2520 | 216 | 3330 | 145 | 521 | 737 | 678
COc1ccc(C2=N[C@@H](c3ccc(Cl)cc3)[C@@H](c3ccc(Cl)cc3)N2C(=O)N2CCNC(=O)C2)c(OC(C)C)c1 [Nutlin-3] + COc1cc2c(Oc3ccc4[nH]c(C)cc4c3F)ncnc2cc1OCCCN1CCCC1 [cediranib] (first compound 0.1 µM, partner dose 0.4 µM) | 111 | 169 | 72.4 | 197 | 154 | 152 | 131 | 92.7 | 81.8 | 111
CC1(C)CCC(c2ccc(Cl)cc2)=C(CN2CCN(c3ccc(C(=O)NS(=O)(=O)c4ccc(N[C@H](CCN5CCOCC5)CSc5ccccc5)c(S(=O)(=O)C(F)(F)F)c4)cc3)CC2)C1 + C[C@@H]1CCN(C(=O)CC#N)C[C@@H]1N(C)c1ncnc2[nH]ccc12 [CP690550] (first compound 0.4 µM, partner dose 1 µM) | 65.8 | 143 | 124 | 113 | 608 | 713 | 246 | 789 | 1060 | 307
Cn1sc(=O)n(Cc2ccccc2)c1=O + O=C(CCCCCCC(=O)Nc1ccccc1)NO [vorinostat] (first compound 0.4 µM, partner dose 0.08 µM) | 103 | 39.4 | 97.3 | 24.8 | 129 | 122 | 98.2 | 94.9 | 89.2 | 86.5
C[C@@H](N)c1ccc(C(=O)Nc2ccnc3[nH]ccc23)cc1 + NC(=O)Nc1cc(-c2cccc(F)c2)sc1C(=O)N[C@H]1CCCNC1 [AZD7762] (first compound 0.4 µM, partner dose 0.02 µM) | 50 | 53.3 | 41.8 | 878 | 220 | 128 | 93.9 | 94.3 | 233 | 72.2
COc1ccc(C2=N[C@@H](c3ccc(Cl)cc3)[C@@H](c3ccc(Cl)cc3)N2C(=O)N2CCNC(=O)C2)c(OC(C)C)c1 [Nutlin-3] + Cn1cncc1[C@@](N)(c1ccc(Cl)cc1)c1ccc2c(c1)c(-c1cccc(Cl)c1)cc(=O)n2C [tipifarnib] (first compound 0.1 µM, partner dose 0.01 µM) | 47.3 | 321 | 146 | 146 | 232 | 208 | 56.7 | 118 | 144 | 116

Part of the list above, tab-delimited.
Compound	cleaved PARP positive nuclei fraction (501Mel) [%]	cleaved PARP positive nuclei fraction (A101D) [%]	cleaved PARP positive nuclei fraction (A2058) [%]	cleaved PARP positive nuclei fraction (A375) [%]	cleaved PARP positive nuclei fraction (C32) [%]	cleaved PARP positive nuclei fraction (CBRC008) [%]	cleaved PARP positive nuclei fraction (CBRC013) [%]	cleaved PARP positive nuclei fraction (CBRC014) [%]	cleaved PARP positive nuclei fraction (CBRC016) [%]	cleaved PARP positive nuclei fraction (CBRC017) [%]
CC(=O)O[C@@]12CO[C@@H]1C[C@H](O)[C@@]1(C)C(=O)[C@H](O)C3=C(C)[C@@H](OC(=O)[C@H](O)[C@@H](NC(=O)OC(C)(C)C)c4ccccc4)C[C@@](O)([C@@H](OC(=O)c4ccccc4)[C@H]21)C3(C)C [Docetaxel] + COc1cc(Nc2ncc(F)c(Nc3ccc4c(n3)NC(=O)C(C)(C)O4)n2)cc(OC)c1OC [Tamatinib] (first compound 0.0001 µM, partner dose 0.4 µM)	395	124	14600	7040	303	1150	98.7	181	636	218
CC1(C)CCC(c2ccc(Cl)cc2)=C(CN2CCN(c3ccc(C(=O)NS(=O)(=O)c4ccc(N[C@H](CCN5CCOCC5)CSc5ccccc5)c(S(=O)(=O)C(F)(F)F)c4)cc3)CC2)C1 + C[C@@H]1CCN(C(=O)CC#N)C[C@@H]1N(C)c1ncnc2[nH]ccc12 [CP690550] (first compound 0.4 µM, partner dose 1 µM)	65.8	143	124	113	608	713	246	789	1060	307
